Variants at the background level are over-represented here.

One data set relates to biotinyl-Ile-oxazolone. As to the kind of experiment: self-aminoacylation, catalytic enhancement (BIO) (fold over background); higher = more active; k-Seq, kA / k0A0; sequences stand for … in GGGAAUGGAUCCACAUCUACGAAUUC…UUCACUGCAGACUUGACGAAGCUG
The gist of the method: (§1)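 The uncatalyzed rate is the low-activity peak of a bimodal Gaussian fit, and catalytic enhancement is median kA divided by it. The kA values came from pseudo-first-order fits, with 1000 bootstraps, of per-sequence fraction reacted measured by streptavidin capture, triplicate qPCR and Illumina sequencing. Mutagenized RNA pools with a 21-nt variable region (0.43 μM) were reacted with each biotinyl-aminoacyl-oxazolone at 2–1250 μM in 50 μL HEPES/NaCl/KCl/MgCl2/CaCl2 buffer with 5% acetonitrile, pH 6.9–7.0, for 90 minutes at room temperature.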

The subject of the next data set is biotinyl-Phe-oxazolone. In words: self-aminoacylation, catalytic enhancement (BFO) (fold over background); higher = more active; k-Seq, kA / k0A0; sequences stand for … in GGGAAUGGAUCCACAUCUACGAAUUC…UUCACUGCAGACUUGACGAAGCUG
The gist of the method:
as §1

Another data set concerns biotinyl-Met-oxazolone. In words: self-aminoacylation, catalytic enhancement (BMO) (fold over background); higher = more active; k-Seq, kA / k0A0; sequences stand for … in GGGAAUGGAUCCACAUCUACGAAUUC…UUCACUGCAGACUUGACGAAGCUG
The gist of the method:
as §1

In a further data set the test system is biotinyl-Trp-oxazolone. In words: self-aminoacylation, catalytic enhancement (BWO) (fold over background); higher = more active; k-Seq, kA / k0A0; sequences stand for … in GGGAAUGGAUCCACAUCUACGAAUUC…UUCACUGCAGACUUGACGAAGCUG
The gist of the method:
as §1

The next data set concerns biotinyl-Leu-oxazolone. In words: self-aminoacylation, catalytic enhancement (BLO) (fold over background); higher = more active; k-Seq, kA / k0A0; sequences stand for … in GGGAAUGGAUCCACAUCUACGAAUUC…UUCACUGCAGACUUGACGAAGCUG
The essentials: as §1

The next data set deals with biotinyl-Val-oxazolone. As to the kind of experiment: self-aminoacylation, catalytic enhancement (BVO) (fold over background); higher = more active; k-Seq, kA / k0A0; sequences stand for … in GGGAAUGGAUCCACAUCUACGAAUUC…UUCACUGCAGACUUGACGAAGCUG
The essentials: as §1

Turning to “CUACUUCAAACAAUCGGACGG [Fam1A.1 aminoacylation ribozyme variant]”, the self-aminoacylation in the data set with biotinyl-Ile-oxazolone was 0.783; with biotinyl-Phe-oxazolone it was 0.592; in the data set on biotinyl-Met-oxazolone it was 0.768; in the data set with biotinyl-Trp-oxazolone, 0.576; with biotinyl-Leu-oxazolone, 0.662; in the data set with biotinyl-Val-oxazolone, 0.858.
On to “AUUCCCCUAGGUAAUCGGGUG [Fam2.2 aminoacylation ribozyme variant]”, for which the self-aminoacylation in the data set on biotinyl-Ile-oxazolone turned out to be 7.5; in the data set on biotinyl-Phe-oxazolone it was 90.8; in the data set on biotinyl-Met-oxazolone it was 10.7; in the data set on biotinyl-Trp-oxazolone, 11.6; in the data set with biotinyl-Leu-oxazolone, 16.3; with biotinyl-Val-oxazolone it was 6.58.
For the sequence “CCACUCUUCAAGCAGUCGGUC [Fam1B.1 aminoacylation ribozyme variant]”, the self-aminoacylation with biotinyl-Ile-oxazolone came out at 1.04; with biotinyl-Phe-oxazolone, 1.07; with biotinyl-Met-oxazolone, 1.03; in the data set on biotinyl-Trp-oxazolone it was 1.28; with biotinyl-Leu-oxazolone, 1.24; with biotinyl-Val-oxazolone, 1.1.
As for “CUACUUCUAACAAUAGGUCUG [Fam1A.1 aminoacylation ribozyme variant]”, the self-aminoacylation in the data set with biotinyl-Ile-oxazolone worked out at 0.686; in the data set on biotinyl-Phe-oxazolone, 0.804; in the data set with biotinyl-Met-oxazolone, 0.731; in the data set on biotinyl-Trp-oxazolone it was 0.373; in the data set with biotinyl-Leu-oxazolone, 0.59; in the data set on biotinyl-Val-oxazolone it was 0.638.
Regarding “AUGCAUCUAGGUCAUCGGGUG [Fam2.2 aminoacylation ribozyme variant]”, the self-aminoacylation in the data set on biotinyl-Ile-oxazolone came out at 5.83; in the data set with biotinyl-Phe-oxazolone it was 57; in the data set on biotinyl-Met-oxazolone, 8.33; with biotinyl-Trp-oxazolone, 9.62; with biotinyl-Leu-oxazolone, 9.38; in the data set on biotinyl-Val-oxazolone, 5.41.
With “CCACACUUCAAGCAAGCGGUU [Fam1B.1 aminoacylation ribozyme variant]”, the self-aminoacylation in the data set on biotinyl-Ile-oxazolone is 1.56; in the data set with biotinyl-Phe-oxazolone, 0.999; with biotinyl-Met-oxazolone, 1.21; in the data set on biotinyl-Trp-oxazolone it was 1.4; in the data set with biotinyl-Leu-oxazolone, 1.38; in the data set with biotinyl-Val-oxazolone it was 1.88.
For “CCACCCUUCAAGCAAUCUGUC [Fam1B.1 aminoacylation ribozyme variant]”, the self-aminoacylation was 0.429 in the data set with biotinyl-Ile-oxazolone; 0.649 with biotinyl-Phe-oxazolone; 0.397 in the data set with biotinyl-Met-oxazolone; 0.452 with biotinyl-Trp-oxazolone; 0.408 with biotinyl-Leu-oxazolone; 0.579 in the data set with biotinyl-Val-oxazolone.
In the case of “ACGUUUGAUAAUAGUCGCAAG [Fam3.1 aminoacylation ribozyme variant]”, the self-aminoacylation with biotinyl-Ile-oxazolone was 1.09; in the data set with biotinyl-Phe-oxazolone it was 1.66; in the data set on biotinyl-Met-oxazolone it was 1.02; with biotinyl-Trp-oxazolone, 1.21; in the data set on biotinyl-Leu-oxazolone it was 0.839; with biotinyl-Val-oxazolone it was 1.06.
Consider “AUUCACCUAGAUCAUUGGGUG [Fam2.2 aminoacylation ribozyme variant]”, for which the self-aminoacylation amounted to 2.15 with biotinyl-Ile-oxazolone; 18 with biotinyl-Phe-oxazolone; 3.71 with biotinyl-Met-oxazolone; 3.54 in the data set on biotinyl-Trp-oxazolone; 3.94 in the data set on biotinyl-Leu-oxazolone; 1.91 with biotinyl-Val-oxazolone.
As to “CUACUUCAAGCAUUCGGUCUG [Fam1A.1 aminoacylation ribozyme variant]”, the self-aminoacylation with biotinyl-Ile-oxazolone was 1.15; in the data set with biotinyl-Phe-oxazolone, 1.25; in the data set on biotinyl-Met-oxazolone, 1.21; in the data set on biotinyl-Trp-oxazolone it was 0.865; in the data set with biotinyl-Leu-oxazolone, 1.07; with biotinyl-Val-oxazolone it was 1.21.
On to “UAGUUUGAUAAUAGUCGCAAG [Fam3.1 aminoacylation ribozyme variant]”, for which the self-aminoacylation with biotinyl-Ile-oxazolone is 1.6; with biotinyl-Phe-oxazolone, 1.41; with biotinyl-Met-oxazolone, 1.56; in the data set with biotinyl-Trp-oxazolone, 1.42; in the data set on biotinyl-Leu-oxazolone it was 1.41; in the data set on biotinyl-Val-oxazolone, 1.17.
Consider “AUUCACCUAGGUCAUCAGAUG [Fam2.2 aminoacylation ribozyme variant]”, for which the self-aminoacylation in the data set on biotinyl-Ile-oxazolone came out at 0.857; with biotinyl-Phe-oxazolone it was 0.715; in the data set with biotinyl-Met-oxazolone it was 0.656; with biotinyl-Trp-oxazolone, 0.522; in the data set with biotinyl-Leu-oxazolone it was 0.928; in the data set on biotinyl-Val-oxazolone, 0.872.
Turning to “AUUCACCUAGGUCCUCAGGUG [Fam2.2 aminoacylation ribozyme variant]”, the self-aminoacylation with biotinyl-Ile-oxazolone came to 1.07; in the data set on biotinyl-Phe-oxazolone, 1.51; in the data set on biotinyl-Met-oxazolone it was 1.65; in the data set on biotinyl-Trp-oxazolone, 1.43; in the data set with biotinyl-Leu-oxazolone it was 1.79; in the data set with biotinyl-Val-oxazolone it was 1.23.
For the sequence “CCAGACUUCAAGCAAUAGGUC [Fam1B.1 aminoacylation ribozyme variant]”, the self-aminoacylation in the data set with biotinyl-Ile-oxazolone came out at 0.758; with biotinyl-Phe-oxazolone it was 1.13; in the data set with biotinyl-Met-oxazolone, 0.611; with biotinyl-Trp-oxazolone, 0.495; in the data set on biotinyl-Leu-oxazolone it was 0.521; with biotinyl-Val-oxazolone it was 0.751.
Turning to “CCACACUUCACGCACUCGGUC [Fam1B.1 aminoacylation ribozyme variant]”, the self-aminoacylation with biotinyl-Ile-oxazolone worked out at 1.22; with biotinyl-Phe-oxazolone, 0.401; in the data set on biotinyl-Met-oxazolone it was 1.27; in the data set on biotinyl-Trp-oxazolone, 0.82; in the data set with biotinyl-Leu-oxazolone, 1.43; in the data set on biotinyl-Val-oxazolone, 1.43.
As for “CCACACUUCAAUCAUUCGGUC [Fam1B.1 aminoacylation ribozyme variant]”, the self-aminoacylation with biotinyl-Ile-oxazolone stood at 1.01; in the data set on biotinyl-Phe-oxazolone, 0.919; in the data set on biotinyl-Met-oxazolone it was 1.14; with biotinyl-Trp-oxazolone it was 0.733; in the data set with biotinyl-Leu-oxazolone, 0.893; with biotinyl-Val-oxazolone, 1.2.
For “CCACACUUCAAGCAACCGUUC [Fam1B.1 aminoacylation ribozyme variant]”, the self-aminoacylation in the data set with biotinyl-Ile-oxazolone came out at 1.02; in the data set on biotinyl-Phe-oxazolone it was 0.885; in the data set on biotinyl-Met-oxazolone, 1.01; with biotinyl-Trp-oxazolone, 1.01; in the data set with biotinyl-Leu-oxazolone, 0.754; with biotinyl-Val-oxazolone it was 1.5.
Take “CCACCCUUCAAGCAAUCCGUC [Fam1B.1 aminoacylation ribozyme variant]”: the self-aminoacylation with biotinyl-Ile-oxazolone is 1.18; with biotinyl-Phe-oxazolone, 0.978; in the data set with biotinyl-Met-oxazolone, 0.893; in the data set with biotinyl-Trp-oxazolone, 0.907; in the data set with biotinyl-Leu-oxazolone it was 0.983; in the data set on biotinyl-Val-oxazolone, 1.53.
With “GUUCACCUAGGUCUUCGGGUG [Fam2.2 aminoacylation ribozyme variant]”, the self-aminoacylation in the data set on biotinyl-Ile-oxazolone was determined as 3.83; with biotinyl-Phe-oxazolone, 33.8; in the data set with biotinyl-Met-oxazolone, 4.89; with biotinyl-Trp-oxazolone, 5.22; with biotinyl-Leu-oxazolone it was 5.73; in the data set on biotinyl-Val-oxazolone, 4.05.
In the case of “AUAACCCUGGUCAUCGACUGA [Fam2.1 aminoacylation ribozyme variant]”, the self-aminoacylation in the data set on biotinyl-Ile-oxazolone is 0.884; in the data set with biotinyl-Phe-oxazolone, 0.517; in the data set with biotinyl-Met-oxazolone it was 0.892; in the data set on biotinyl-Trp-oxazolone it was 0.396; in the data set on biotinyl-Leu-oxazolone, 0.806; with biotinyl-Val-oxazolone, 0.858.
As for “CUACCUCAAACAAUCCGUCUG [Fam1A.1 aminoacylation ribozyme variant]”, the self-aminoacylation in the data set with biotinyl-Ile-oxazolone was determined as 0.999; with biotinyl-Phe-oxazolone it was 0.486; with biotinyl-Met-oxazolone it was 1.61; with biotinyl-Trp-oxazolone, 0.905; in the data set on biotinyl-Leu-oxazolone, 0.874; in the data set with biotinyl-Val-oxazolone, 1.05.
